In all, about 340,000 compounds went through this assay and about 170 (0.05%) were called active. Inconclusive results, whose numbers are uncertain, are shown with a selection of clear calls. Calls follow the shape of the dose curve; as a rule, active = well fitted inhibition curve with a large enough effect in the signal ratio, with a control signal flat (not every such curve was filed as active); inconclusive = small, poorly fitted or top-dose-only effect, or effect the other way, or a change in a side signal; inactive = flat fitted curve, though single readings scatter; the % refers to the signal ratio. Where the call is inconclusive, the potency comes from a doubtful curve fit.
Experiment: qHTS Assay to Find Inhibitors of Chronic Active B-Cell Receptor Signaling;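 as to activity change, negative = inhibition: plate controls were basal doxycycline-induced cells for no effect and cells given 10 µM MG132 for full effect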
Settings: ABC-DLBCL IkBa-CBG/CBR reporter, luminescence ratio (green luciferase fused to IkBa over red control in TMD8 lymphoma cells), 4 h; activity change, negative = inhibition: at 46.1 µM (top of the series) unless noted
Method in brief: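 Compounds up to 46 uM were incubated four hours with TMD8 cells whose green CBG68 luciferase is fused to IkappaBalpha; red CBR luminescence normalised the signal, and concentration-effect curves were fitted to fusion, red and ratio data.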
Potency is read from the fitted curve at half-maximal effect.

SMILES	activity change, negative = inhibition	Potency
Cc1ccc(C2=NOC(=O)/C2=C\C=C\c2ccccc2)cc1	inconclusive: -3.29%	–
Cc1cccc(NC(=O)COC(=O)[C@@H]2CCCN2C(=O)c2cccs2)c1	inconclusive: 0.253%	–
O=C(O)CSc1nc2ccccc2n1C1CCCCC1	inconclusive: 3.78%	–
CC(C)CCNC(=O)c1cc2c(=O)[nH]c3ccccc3c2s1	inconclusive: 8.98%	–
Cc1cc2oc(=O)c(CC(=O)NCCCN(C)C)c(C)c2c2occ(C(C)(C)C)c12	inconclusive: -5.53%	–
COc1ccc(NC(=S)NC(=O)c2cccnc2)cc1	inactive: -3.89%	–
CCC(C)c1ccccc1N1CC(C(=O)Nc2ccc(N3CCOCC3)cc2)CC1=O (stereo not drawn)	inconclusive: -1.16%	–
CCOc1ccc2nc(CN3CCN(Cc4ccccc4OCC)C(CCO)C3)ccc2c1 (stereo not drawn)	inactive: -3.96%	–
Cc1ccc(NCC(=O)N=Nc2c(O)[nH]c3ccc([N+](=O)[O-])cc23)cc1	inactive: 19.9%	–
COC(=O)c1cccc(-n2sc3ccccc3c2=O)c1	–	inconclusive: 29.1 µM [cytotoxic, single point]
O=c1c(-c2ccc([N+](=O)[O-])cc2)coc2c(O)c(O)ccc12	inactive: 6.31%	–
COc1ccccc1NC(=O)C(=O)c1cn(CC(=O)N2CCCC2)c2ccccc12	–	inconclusive: 3.55 µM [falling, partial curve, poor fit]
CCc1ccc(NC(=O)Nc2ccon2)cc1	inactive: 0.932%	–
O=C(CN1CCN(Cc2ccc3c(c2)OCO3)CC1)Nc1ccc2c(c1)OCCO2	inconclusive: 5.04%	–
O=C(CSCc1ccco1)N1CCc2ccccc21	inconclusive: 2.69%	–
O=C(/C=C/c1cccs1)Nc1ccc(Br)cn1	–	inconclusive: 6.51 µM [cytotoxic, single point]
CCC(C)Sc1nc2c([nH]c3ccccc32)c(=O)n1C (stereo not drawn)	inconclusive: 11.1%	–
O=C(CN1CCN(S(=O)(=O)c2ccc(Br)cc2)CC1)N/N=C/c1cccnc1	inactive: -15.2%	–
Cn1c(SCC(=O)OCc2ccccc2)nnc1-c1ccco1	–	inconclusive: 4.11 µM [rising, full curve, poor fit]
COc1ccc(C2CC(=O)c3cnn(-c4nc(C)cc(C)n4)c3C2)cc1 (stereo not drawn)	–	inconclusive: 11.2 µM [falling, partial curve, poor fit]
COc1ccc2[nH]c(C(=O)N3CCCN(Cc4ccc(F)cc4)CC3)cc2c1	inactive: 0.468%	–
Cc1csc(SCC(=O)NC(C)C2CC3CCC2C3)n1 (stereo not drawn)	inconclusive: 1.86%	–
O=C(N/N=C/c1ccccn1)c1cc(C2CC2)[nH]n1	–	inconclusive: 22.4 µM [falling, single point]

Structures above that have bromine:
SMILES	activity change, negative = inhibition	Potency
O=C(/C=C/c1cccs1)Nc1ccc(Br)cn1	–	inconclusive: 6.51 µM [cytotoxic, single point]
O=C(CN1CCN(S(=O)(=O)c2ccc(Br)cc2)CC1)N/N=C/c1cccnc1	inactive: -15.2%	–

Source: PubChem BioAssay AID493014 (National Center for Advancing Translational Sciences (NCATS), 2011)
